# Experimental data published in PubChem BioAssay AID1347423 (Functional Genomics Laboratory (NCATS/FGL), 2020).
# The campaign covered roughly 52,000 sequences. About 210 (0.4%) were called active.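 Rule for the calls: active = gene whose silencing raises cell survival under the drug, median off-target-corrected z-score across its silencing RNAs 2 or more; inactive = the rest.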 This is one part of the list.
# Assay: Resistance to Poly (ADP-Ribose) Polymerase inhibitor: Gene Identification via Genome-wide siRNA Screen
# Details: mouse BRCA2 R2336H ES cells, olaparib, CellTiter-Glo viability; stronger effect = higher value
# Outline: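 Mouse BRCA2 R2336H ES cells were reverse-transfected with siRNA (20 nM final), treated at 48 h with 500 nM olaparib, and read by CellTiter-Glo after 72 h. Scores: MAD-based z per siRNA, median per gene, seed off-target correction.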
row,Sequence,z-score
1,GGUUAUGUACCAGCAAAGUTT against AU040950,inactive: 0.132
2,CCGCGUGUUCCUUCUGAUUTT against Edg3,inactive: 0.294
3,GGAGAUAAUUCAUUAUGGCTT against Zfpm2,inactive: 0.784
4,AGCUCACAUCGUACUGAAGTT against 1700030B21Rik,inactive: -0.501
5,CGACUCCAAUCUACAGGUUTT against 4930527D15Rik,inactive: 0.714
6,GGGAAGCAGUAUUUAAUCATT against Hc,inactive: -0.234
7,GCCUCACUUUGACUGUCGCTT against 5730494M16Rik,inactive: 0.656
8,GCUGCAUUCGGUUACCACUTT against 4832415H08Rik,inactive: -1.2
9,GGCACUUUUUGGAAAAAACTT against Mkrn1,inactive: 1.13
10,GCUAAAGCUAAGAUUGAAGTT against Poli,inactive: 0.346
11,GGAGUUGUGGAAUUCUCUATT against Extl2,inactive: 0.0321
12,GGUCAAAGUUGGAAAUUGCTT against Acbd6,inactive: 0.837
13,GGUCAACAGAAUGAAAAAUTT against Cbfa2t1h,inactive: 0.271
14,GCCAUCAAAGAAUAUGUUUTT against Sf3b3,inactive: -2.43
15,GGACAAGUCCUUUGCUGUGTT against Prkcbp1,inactive: 1.43
16,GAUAUGCAAGGAGGAGGCATT against BC061212,inactive: -1.35
17,GGAUCUAAGGUGAACAAGATT against Rpl3,inactive: -3.62
18,CCCUGGGCAGUUUGCAUGUTT against Dgcr2,inactive: 1.85
19,AACCUCUCCUUCUUAGACATT against Olfr724,inactive: -1.05
20,GGAGAUGUCUGAUGUAACCTT against AW539457,inactive: -0.899
21,GCACGUAGUAAGAUGUUACTT against Rqcd1,active: 2.53
22,GGCGUACAACAACCUACAGTT against Siat7e,inactive: -2.09
23,CGGGUAACUACUAGGAAGGTT against 1700011F03Rik,inactive: 0.504
24,GCACAUUGGCUGUGAGUCATT against Hspa5bp1,inactive: 0.604
25,GGAAUUCAUCUGUUAGAUUTT against BC019943,inactive: 2.59
26,CGUACCACGGAGGACUUAUTT against Dpf3,inactive: -0.596

row,Sequence,z-score
1,GGAAAUCCUGGGACAGAACTT against Htatip2,inactive: -0.511
2,GGCCAAAUACUGAAUAUUCTT against Ssb,inactive: 0.938
3,GGAGCUCUGAGGCUUAUAGTT against Prop1,inactive: -1.91
4,GGCCAUGAACUGGCAAAGCTT against Erbb2ip,inactive: -0.112
5,GGUGAUACAGAUUCUAGGUTT against 4930546H06Rik,inactive: -0.38
6,CGAAGAGAGCUGCAUUAAATT against C030030A07Rik,inactive: -1.01
7,GGGCUCUGCGCUACUUAAATT against Zfp358,inactive: 1.41
8,GCAACAUUCCAGGGCUGAATT against Dnmt3l,inactive: 0.957
9,GCGCAGUAUCCACUUCAAUTT against Pcsk7,inactive: 0.0409
10,CCAGAAGUGAUGGUUCAGUTT against 2700094K13Rik,inactive: -1.2
11,GGAAUGAUAUUCUUGUUUCTT against 4930429H24Rik,inactive: 1.25
12,GGAUGCCUUGAAGAAAUUATT against Olfr1044,inactive: 2.01
13,GGAAGGACUGAGGUAUCAUTT against Gtf2f2,inactive: -1.35
14,GGACGCAUGGAUCAAAAAATT against 2210412D01Rik,inactive: 1.79
15,GGAAGAGGUUGAGAUCCAATT against Pogk,inactive: 0.561
16,GGUAUUUGUGAAGACGUGUTT against AI894139,inactive: 1.51
17,GGUGUUGUCAGAAGUUUAATT against 9330176C04Rik,inactive: 0.674
18,GGUAUUUUGCUCAGUCCCGTT against Tcfap2b,inactive: 0.286
19,GGAAUGGAACUUGUCUGGGTT against Gpr37,inactive: -0.0885
20,GGGACUGUGUGUAAAGGACTT against 2410001H17Rik,inactive: 0.113
21,GGAACGAGAAAUGAUCCAGTT against Ap1g1,inactive: 0.0766
22,GCAGUGACCUGCCACUGAATT against Cd79b,inactive: -0.161
23,CGUAAAUAUGCCCGUAGUUTT against Plunc,inactive: -1.14
24,GCUCUAUACCUUACGGUCCTT against Llglh2,inactive: 0.0343
25,GGUCUUCAAAAUCAUCCCUTT against 9030624L02Rik,inactive: 1.52
26,GCAUCCUGGCUUAUCCAUUTT against Hmgb1,inactive: 2.28

row,Sequence,z-score
1,GGUAAAUGUGAAUGUAAGGTT against Ntn4,inactive: 1.36
2,GGGUCACUUGGAUUGUGGATT against 2310042M24Rik,inactive: 0.885
3,GGUAAUAACCCUUAAUAAGTT against MGC90611,inactive: -0.00645
4,GGAUGAGAUAUUCAGCCAGTT against Rshl1,inactive: 0.426
5,CCAAAUGCAACAAAGGUAATT against Maob,inactive: 0.734
6,GCUUCACUCUCUUCUUUGCTT against Olfr1463,inactive: -1.05
7,CCCUAGCCAUAUGGAAUAUTT against 9130230L23Rik,inactive: -1.36
8,GGAGCAUUUAAGGUUUACUTT against 2700055A20Rik,inactive: -0.743
9,GGAAUCUCCUAGAAAUAUUTT against 4732496G21Rik,inactive: -0.94
10,CCCUGAUUAAUGGUUCUAUTT against Sorl1,inactive: -0.167
11,GCCACGUACAUCCACUCUCTT against Pxmp4,inactive: -0.114
12,GGAGUAUUUAUCAACGGCATT against Pax3,inactive: 0.654
13,GGAGUCCUGGUGCAAACUCTT against Cnil,inactive: 1.38
14,GGAUAGGAAGAAAAUGAAGTT against Slfn2,inactive: -0.146
15,GGACUAUUACACAUUAGUGTT against Rbp3,inactive: 1.99
16,GGCUAAGUUUUUAAAGAACTT against Ncald,inactive: -0.124
17,GGACAAAAGACACAUGUUGTT against D4Wsu114e,inactive: 0.582
18,GGCCAUCCCACAGAUUUACTT against 5033405K12Rik,inactive: 0.951
19,GGUGGUUUGUGAUUGGCUUTT against Catnbip1,inactive: 0.863
20,GGUGGUUGUGCAAUAUAGUTT against Sca1,inactive: -1.38
21,GGAGAUCCUCUUCAACAUGTT against BC024502,inactive: 0.658
22,GGCUGUCAUCAUGUUGGUUTT against Slc5a4a,inactive: -2.22
23,GGUUCAGCUAAAGGAUUUATT against BC021875,inactive: -0.72
24,GGUGAGAAAGAUUGAGAUUTT against Pdgfb,inactive: 0.0316
25,CCCUAUUCUUUUUGUCAUGTT against Olfr105,inactive: -0.267
26,GAAAUGUUUGACACAACCUTT against Raet1b,inactive: -0.107

row,Sequence,z-score
1,GCACCUGUAGUUUUAAGCGTT against Traf3,inactive: 0.149
2,CCCUACAUUCUGUAUAGCCTT against Olfr474,inactive: 0.0524
3,CCUCAUGGUGAUGAUAUCCTT against Taar6,inactive: 0.298
4,GGUCCUCUCAGACAUGAAGTT against 2900092E17Rik,inactive: -0.939
5,GGGCAUCUCAGAUUUAGCUTT against Cct3,inactive: -2.52
6,GGACAACAAGGCUUGCUACTT against Plxna2,inactive: 0.251
7,CCAUCUCUUACUAUCCAUGTT against 2310016A09Rik,inactive: 1.16
8,GGUAUGUAGGAAUUACAGUTT against AI606181,inactive: 0.573
9,GCAGUUACAGGAAAUCGAGTT against Cdr2,inactive: 0.167
10,GGGAUCAGUCUACACGUCGTT against Irx2,inactive: -1.94
11,GCCAUCUAGCUACUGACACTT against Tubb3,inactive: 0.0913
12,GGUUAAAAUUUGGAAUCUGTT against Gm83,inactive: 0.697
13,CCCUGAUCUUGUGAGAAUUTT against Gm606,inactive: -0.784
14,GUUUACCUAGUCUUUGAAUTT against 2610028H07Rik,inactive: 1.23
15,GGCAUUUACUACUUCAUAGTT against 4921501M20Rik,inactive: -0.899
16,GGCAAAAGCACUGAAGAGATT against Ar,inactive: -1.26
17,CCCGAAACAUCAUCAAGUATT against 4832415H08Rik,inactive: 0.131
18,GGUUCAUUUUAACUGUAGATT against Pira3,inactive: -0.217
19,GGAGAGCUCUGGAAGCUUUTT against Ppara,inactive: 0.333
20,GGAUUCCGUGCAUUUGUGATT against Atad3a,inactive: -0.388
21,CCACCUUGGUCUAAUUUCUTT against Slitrk4,inactive: -1.52
22,CCUGUUGAGUACUGUGCUGTT against Olfr987,inactive: -0.621
23,GCCAGAUAGACAAUGAAGUTT against Gm672,inactive: 0.277
24,GGAAUCACGUUCCAAACAUTT against V1ra1,inactive: 0.063
25,CGUGGACUUAAUAUUUCAGTT against Btbd7,inactive: 0.564
26,GGCCAAAGAGGAGGAAAACTT against D5Bwg0834e,inactive: -0.569

# Six records picked at random from those above:
row,Sequence,z-score
14,GCCAUCAAAGAAUAUGUUUTT against Sf3b3,inactive: -2.43
1,GGUAAAUGUGAAUGUAAGGTT against Ntn4,inactive: 1.36
9,GCGCAGUAUCCACUUCAAUTT against Pcsk7,inactive: 0.0409
5,GGGCAUCUCAGAUUUAGCUTT against Cct3,inactive: -2.52
25,GGAAUUCAUCUGUUAGAUUTT against BC019943,inactive: 2.59
24,GGUGAGAAAGAUUGAGAUUTT against Pdgfb,inactive: 0.0316
